According to PubChem BioAssay AID248 (DTP/NCI, 2004):
The list shows only some results of the screen, not a fair sample: it covers a few groups of compounds. Other doses and runs of a compound may be missing. T/C gives the treated animals as a percentage of the vehicle group. Some entries give survivors of the animals treated and no T/C: the source files T/C as zero there, which appears to mark a toxic dose or a test without result, not a measured value. Some survivor counts are full or nearly so, which does not show that the dose was tolerated: the source hardly ever lists a survival T/C far under the control, and the zero likely stands for such cases as well. Counts of survivors are from the toxicity check (mostly the fifth day) where no day follows; animals may have died later. Schedule codes are those of the source, read here as Q, the interval in days (D) or hours (H), X, the number of doses. Where survival is the endpoint, the PubChem record calls one and a half times the control and up active, and a quarter to a half above the control has no call in these data; cut-offs in other NCI protocols can differ. Some T/C values are followed by the survivors on the day toxicity was checked, most often the fifth; without a count or a note in brackets, all were alive then. Some doses were run more than once; the results are listed from low to high. Some schedules carry Z or #; the key to these is not given. Some T/C values are marked as having no survivor count here; that says nothing about deaths at the dose.

System: L1210 leukemia ip in BDF1 mice, survival T/C
Assay: NCI In Vivo Anticancer Drug Screen. Data for tumor model L1210 Leukemia (intraperitoneal) in B6D2F1 (BDF1) mice
Settings: T/C endpoint: mean survival time, higher T/C = longer survival

O=CCCc1ccc(N(CCCl)CCCl)cc1
T/C (dose: 100.0 mg/kg/injection, schedule: Q04DX003 (ip), vehicle: Klucel (hydroxypropylcellulose) (HPC)): 110 % of control
T/C (dose: 200.0 mg/kg/injection, schedule: Q04DX003 (ip), vehicle: Klucel (hydroxypropylcellulose) (HPC)): 108 % of control
T/C (dose: 400.0 mg/kg/injection, schedule: Q04DX003 (ip), vehicle: Klucel (hydroxypropylcellulose) (HPC)): 121 % of control

CCOC(=O)Cc1ccc(N(CCCl)CCCl)cc1
T/C (dose: 75.0 mg/kg/injection, schedule: Q01DX001 (ip), vehicle: saline): 93 % of control
T/C (dose: 150.0 mg/kg/injection, schedule: Q01DX001 (ip), vehicle: saline): 104 % of control
T/C (dose: 300.0 mg/kg/injection, schedule: Q01DX001 (ip), vehicle: saline): 107 % of control

CCN(CCCl)C1C(O)C(O)OC(CO)C1O (stereo unspecified)
T/C (dose: 18.0 mg/kg/injection, schedule: Q01DX Z (ip), vehicle: saline): 125 % of control
T/C (dose: 27.0 mg/kg/injection, schedule: Q01DX Z (ip), vehicle: saline): 121 % of control

CCCCOP(=S)(S)OCCCC.[Hg]
T/C (dose: 100.0 mg/kg/injection, schedule: Q01DX009 (ip), vehicle: Klucel (hydroxypropylcellulose) (HPC)): 94 % of control
T/C (dose: 200.0 mg/kg/injection, schedule: Q01DX009 (ip), vehicle: Klucel (hydroxypropylcellulose) (HPC)): 92 % of control
survivor count (dose: 400.0 mg/kg/injection, schedule: Q01DX009 (ip), vehicle: Klucel (hydroxypropylcellulose) (HPC)): 4 of 6

C1CN1.NC(CC(=O)O)C(=O)O (stereo unspecified)
T/C (dose: 50.0 mg/kg/injection, schedule: Q04DX002 (ip), vehicle: saline): 113 % of control
T/C (dose: 100.0 mg/kg/injection, schedule: Q04DX002 (ip), vehicle: saline): 105, 106, 124 % of control
T/C (dose: 200.0 mg/kg/injection, schedule: Q04DX002 (ip), vehicle: saline): 115 [9 of 10 alive], 120, 130 % of control
T/C (dose: 400.0 mg/kg/injection, schedule: Q04DX002 (ip), vehicle: saline): 95 [2 of 3 alive], 103 [7 of 10 alive], 109 % of control

O=[As](O)(O)c1ccc(Cl)cc1
T/C (dose: 6.25 mg/kg/injection, schedule: Q01DX009 (ip), vehicle: saline with Tween-80): 96 % of control [5 of 6 alive]
survivor count (dose: 12.5 mg/kg/injection, schedule: Q01DX009 (ip), vehicle: saline with Tween-80): 0 of 6
survivor count (dose: 25.0 mg/kg/injection, schedule: Q01DX009 (ip), vehicle: saline with Tween-80): 0 of 6

CN(C)CCS
T/C (dose: 50.0 mg/kg/injection, schedule: Q01DX009 (ip), vehicle: saline): 94 % of control [survivor count not shown]
T/C (dose: 100.0 mg/kg/injection, schedule: Q01DX009 (ip), vehicle: saline): 107 % of control [survivor count not shown]
T/C (dose: 100.0 mg/kg/injection, schedule: Q04DX003 (ip), vehicle: saline): 117 % of control [survivor count not shown]
T/C (dose: 200.0 mg/kg/injection, schedule: Q01DX009 (ip), vehicle: saline): 102 % of control [survivor count not shown]
T/C (dose: 200.0 mg/kg/injection, schedule: Q04DX003 (ip), vehicle: saline): 95 % of control [survivor count not shown]

CN(C)C(=O)Cc1ccc(N(CCCl)CCCl)cc1
T/C (dose: 4.0 mg/kg/injection, schedule: Q12HX018 (ip), vehicle: other): 103 % of control
T/C (dose: 6.0 mg/kg/injection, schedule: Q12HX018 (ip), vehicle: other): 111 % of control
T/C (dose: 8.0 mg/kg/injection, schedule: Q12HX018 (ip), vehicle: other): 114 % of control
